Reference: publication PMC5234816
Residue numbers refer to the chain shown, from its start. Results are given in words; binding and its absence hold for the method and conditions named. Binding seen in cells or lysates may run through a third protein. Some binding calls cover weakened binding; strength is not graded here. Sequences can lack the tags named with a protein.

Legend:
Test in all cases: co-IP; HEK-293 cells transfected with SLITRK5 alleles; interaction with purified PTPδ-Fc examined by co-precipitation and immunoblot; only the binder purified
[1] = molecular target: T1, HA-tagged SLITRK5 N99K (rare non-synonymous mutation from an OCD subject) (human) (UniProt O94991)
T1 sequence: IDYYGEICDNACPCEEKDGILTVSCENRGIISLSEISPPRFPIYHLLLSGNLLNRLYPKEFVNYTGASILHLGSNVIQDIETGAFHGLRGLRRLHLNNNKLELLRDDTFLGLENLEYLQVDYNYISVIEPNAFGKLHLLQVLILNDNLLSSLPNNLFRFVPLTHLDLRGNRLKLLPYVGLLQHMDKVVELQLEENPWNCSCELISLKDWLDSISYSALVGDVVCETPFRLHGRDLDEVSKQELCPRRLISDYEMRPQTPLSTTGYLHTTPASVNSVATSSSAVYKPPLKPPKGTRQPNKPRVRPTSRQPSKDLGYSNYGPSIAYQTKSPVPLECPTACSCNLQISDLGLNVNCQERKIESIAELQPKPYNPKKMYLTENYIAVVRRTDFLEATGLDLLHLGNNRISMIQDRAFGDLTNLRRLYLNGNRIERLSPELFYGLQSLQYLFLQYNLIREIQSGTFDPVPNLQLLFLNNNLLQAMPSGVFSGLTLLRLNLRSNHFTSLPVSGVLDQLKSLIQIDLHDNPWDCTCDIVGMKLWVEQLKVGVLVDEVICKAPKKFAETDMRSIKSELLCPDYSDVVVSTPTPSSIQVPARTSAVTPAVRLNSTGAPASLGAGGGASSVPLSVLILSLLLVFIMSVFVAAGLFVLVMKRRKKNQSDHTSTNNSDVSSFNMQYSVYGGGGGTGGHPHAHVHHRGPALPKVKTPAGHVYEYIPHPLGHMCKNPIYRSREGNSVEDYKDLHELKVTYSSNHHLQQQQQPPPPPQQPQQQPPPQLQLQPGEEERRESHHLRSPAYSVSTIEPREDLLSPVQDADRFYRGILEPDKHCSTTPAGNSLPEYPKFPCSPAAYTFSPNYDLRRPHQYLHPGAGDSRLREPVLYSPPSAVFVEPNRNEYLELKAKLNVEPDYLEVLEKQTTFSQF

[2] = molecular target: T2, HA-tagged SLITRK5 P891L (pseudo-matched control mutation from the 1000 Genomes database) (human) (UniProt O94991)
T2 sequence: T1 sequence with K59N, P851L

[3] = molecular target: T3, HA-tagged wild type SLITRK5 (SLIT and NTRK-Like Family, Member 5), ancestral human allele (human) (UniProt O94991)
T3 sequence: T1 sequence with K59N

binding [1]: binds | binding [2]: binds | binding [3]: binds
B1: soluble PTPδ ectodomain fused to a human immunoglobulin Fc fragment (PTPδ-Fc) (Fc fusion, UniProt P23468 21-1265)
chain: ETPPRFTRTPVDQTGVSGGVASFICQATGDPRPKIVWNKKGKKVSNQRFEVIEFDDGSGSVLRIQPLRTPRDEAIYECVASNNVGEISVSTRLTVLREDQIPRGFPTIDMGPQLKVVERTRTATMLCAASGNPDPEITWFKDFLPVDTSNNNGRIKQLRSESIGGTPIRGALQIEQSEESDQGKYECVATNSAGTRYSAPANLYVRELREVRRVPPRFSIPPTNHEIMPGGSVNITCVAVGSPMPYVKWMLGAEDLTPEDDMPIGRNVLELNDVRQSANYTCVAMSTLGVIEAIAQITVKALPKPPGTPVVTESTATSITLTWDSGNPEPVSYYIIQHKPKNSEELYKEIDGVATTRYSVAGLSPYSDYEFRVVAVNNIGRGPPSEPVLTQTSEQAPSSAPRDVQARMLSSTTILVQWKEPEEPNGQIQGYRVYYTMDPTQHVNNWMKHNVADSQITTIGNLVPQKTYSVKVLAFTSIGDGPLSSDIQVITQTGVPGQPLNFKAEPESETSILLSWTPPRSDTIANYELVYKDGEHGEEQRITIEPGTSYRLQGLKPNSLYYFRLAARSPQGLGASTAEISARTMQSKPSAPPQDISCTSPSSTSILVSWQPPPVEKQNGIITEYSIKYTAVDGEDDKPHEILGIPSDTTKYLLEQLEKWTEYRITVTAHTDVGPGPESLSVLIRTNEDVPSGPPRKVEVEAVNSTSVKVSWRSPVPNKQHGQIRGYQVHYVRMENGEPKGQPMLKDVMLADAQWEFDDTTEHDMIISGLQPETSYSLTVTAYTTKGDGARSKPKLVSTTGAVPGKPRLVINHTQMNTALIQWHPPVDTFGPLQGYRLKFGRKDMEPLTTLEFSEKEDHFTATDIHKGASYVFRLSARNKVGFGEEMVKEISIPEEVPTGFPQNLHSEGTTSTSVQLSWQPPVLAERNGIITKYTLLYRDINIPLLPMEQLIVPADTTMTLTGLKPDTTYDVKVRAHTSKGPGPYSPSVQFRTLPVDQVFAKNFHVKAVMKTSVLLSWEIPENYNSAMPFKILYDDGKMVEEVDGRATQKLIVNLKPEKSYSFVLTNRGNSAGGLQHRVTAKTAPDVLRTKPAFIGKTNLDGMITVQLPEVPANENIKGYYIIIVPLKKSRGKFIKPWESPDEMELDELLKEISRKRRSIRYGREVELKPYIAAHFDVLPTEFTLGDDKHYGGFTNKQLQSGQEYVFFVLAVMEHAESKMYATSPYSDPVVSMDLDPQPITDEEE
